Results as given in patent US6468547B1, “Enhancement of tumor cell chemosensitivity and radiosensitivity using single chain secretory antibodies” (UAB Research Foundation, priority 1996, dated 2002).

Tested on: DU145 cells
Conditions: DU145, 150 ng/ml, 4 days

With CN[C@@H]1C[C@H]2O[C@@](C)([C@@H]1OC)n1c3ccccc3c3c4c(c5c6ccccc6n2c5c31)C(=O)NC4 [staurosporine] the killing was roughly 20%.
